This passage reports binding results from paper PMC11754051.

Protein sequences, listed by entry. Tags and fused reporters are not part of them.
UniProt P03466: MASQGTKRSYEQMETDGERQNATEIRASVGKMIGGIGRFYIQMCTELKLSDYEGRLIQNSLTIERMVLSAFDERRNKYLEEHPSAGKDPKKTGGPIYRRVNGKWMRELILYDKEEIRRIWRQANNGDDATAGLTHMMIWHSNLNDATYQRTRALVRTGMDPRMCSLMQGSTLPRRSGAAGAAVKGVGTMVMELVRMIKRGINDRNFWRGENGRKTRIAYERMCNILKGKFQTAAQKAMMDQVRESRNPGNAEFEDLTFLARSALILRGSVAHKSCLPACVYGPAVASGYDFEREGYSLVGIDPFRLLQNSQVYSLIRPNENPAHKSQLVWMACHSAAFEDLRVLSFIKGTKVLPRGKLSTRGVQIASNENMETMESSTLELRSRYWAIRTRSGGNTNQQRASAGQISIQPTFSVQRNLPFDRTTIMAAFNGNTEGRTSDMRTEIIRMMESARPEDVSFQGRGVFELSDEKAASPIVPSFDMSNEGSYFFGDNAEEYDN
UniProt P41155: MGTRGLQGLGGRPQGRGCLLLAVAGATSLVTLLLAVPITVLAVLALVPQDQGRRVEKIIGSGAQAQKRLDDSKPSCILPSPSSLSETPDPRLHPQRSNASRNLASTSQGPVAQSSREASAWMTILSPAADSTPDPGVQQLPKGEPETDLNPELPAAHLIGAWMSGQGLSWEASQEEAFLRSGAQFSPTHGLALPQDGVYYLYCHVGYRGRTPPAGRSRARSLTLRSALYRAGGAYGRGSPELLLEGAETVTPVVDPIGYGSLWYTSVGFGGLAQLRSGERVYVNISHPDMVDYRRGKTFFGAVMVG

No constants are given. Whether binding was seen depends on the method and setting. In cells and extracts the contact can be indirect. These calls come from enrichment with a bait or labelling near it, and not all partners need be listed.

The experiment addresses T1, Calcium/calmodulin-dependent serine protein kinase (CASK) (mouse (endogenous in primary GM-macrophages)) (UniProt O70589).
T1 sequence: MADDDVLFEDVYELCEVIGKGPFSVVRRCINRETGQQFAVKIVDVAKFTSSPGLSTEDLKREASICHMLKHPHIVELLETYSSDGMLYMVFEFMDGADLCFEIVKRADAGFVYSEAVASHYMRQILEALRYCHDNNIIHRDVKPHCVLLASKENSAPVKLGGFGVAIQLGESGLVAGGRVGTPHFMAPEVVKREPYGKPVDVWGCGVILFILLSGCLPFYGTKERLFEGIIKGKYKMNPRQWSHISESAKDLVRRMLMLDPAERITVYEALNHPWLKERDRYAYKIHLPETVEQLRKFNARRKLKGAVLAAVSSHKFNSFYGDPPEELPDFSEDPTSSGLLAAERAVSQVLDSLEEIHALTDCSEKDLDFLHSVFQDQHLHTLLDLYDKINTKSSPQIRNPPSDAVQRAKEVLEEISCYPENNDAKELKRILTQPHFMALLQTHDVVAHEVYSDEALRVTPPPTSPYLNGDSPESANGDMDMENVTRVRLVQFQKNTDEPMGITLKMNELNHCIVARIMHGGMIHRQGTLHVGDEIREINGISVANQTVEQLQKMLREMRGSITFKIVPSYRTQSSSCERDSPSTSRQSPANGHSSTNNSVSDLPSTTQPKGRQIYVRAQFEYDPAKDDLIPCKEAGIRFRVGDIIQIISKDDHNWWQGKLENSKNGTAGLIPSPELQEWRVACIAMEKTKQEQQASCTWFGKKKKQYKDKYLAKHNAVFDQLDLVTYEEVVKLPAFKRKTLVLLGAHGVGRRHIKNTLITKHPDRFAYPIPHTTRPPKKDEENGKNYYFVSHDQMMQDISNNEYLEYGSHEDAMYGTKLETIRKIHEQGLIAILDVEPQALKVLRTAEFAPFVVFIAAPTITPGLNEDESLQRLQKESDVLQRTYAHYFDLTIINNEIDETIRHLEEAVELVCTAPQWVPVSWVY
Put plainly: affinity purification with mass spectrometry.

On to “IAV nucleoprotein (NP) (from UniProt P03466 1-498)”, for which the binding result is recorded as “binds”. The entry for “Lymphotoxin-beta (from UniProt P41155 1-306)” is “binds”.
